PubChem BioAssay AID720505 – Drosophila RNAi Screening Center | 2013
Assay: 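Genes needed for store-operated calcium entry in fly cells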 (primary screen). System: Drosophila S2R+ cells. Reagent: long dsRNA against Drosophila genes. Conditions: thapsigargin (2 µM) in calcium-free buffer to empty internal stores, then 2 mM calcium added back. Read-out: 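Stores emptied by 2 µM thapsigargin without calcium, then 2 mM calcium re-added; fluo-4 fluorescence followed by FLIPR in 384-well plates, per-well averaged endpoint, raw; two screen passes, some wells retested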. Scale: calcium signal and retest calcium signal: higher = more calcium entry after store depletion. Hit rule: 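Knock-downs counted as hits when calcium entry dropped relative to STIM1 positive and Rho1 negative controls present on each plate; roughly 1500 genes called, with reductions of differing size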. Meaning of the calls: active = called as lowering calcium entry; inactive = not called.
In all, the deposit lists about 20,000 reagents; shown is an unselected part of those with a known target gene and a result. Over the whole deposit, about 2,100 (10%) were called active. 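Raw plate signals without normalisation; calls rest on control-based scores that were not deposited; replicate 2 separates called from uncalled poorly.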 Names joined by + are all predicted targets of the reagent. Not given: the amount of reagent, the time to read-out.

| predicted target | DRSC id | calcium signal, replicate 1 | calcium signal, replicate 2 | retest calcium signal, replicate 1 | retest calcium signal, replicate 2 | Call |
| --- | --- | --- | --- | --- | --- | --- |
| Nepl7 | DRSC02495 | 60.9 | 117 | 96.7 | 115 | active |
| CG14671 | DRSC12257 | 143 | 222 | – | – | inactive |
| ACXA | DRSC00844 | 106 | 103 | – | – | inactive |
| CG6337 | DRSC06977 | 121 | 190 | – | – | inactive |
| CG6337 | DRSC21870 | 95.4 | 173 | – | – | inactive |
| CG30371 | DRSC06835 | 109 | 135 | – | – | inactive |
| S | DRSC00785 | 142 | 120 | – | – | inactive |
| CG4372 | DRSC04466 | 181 | 99.2 | – | – | inactive |
| CG6567 + CG4565 | DRSC15599 | 156 | 81.5 | – | – | inactive |
| cno | DRSC12374 | 62.8 | 103 | – | – | active |
| cno | DRSC22980 | 98.5 | 113 | – | – | inactive |
| CG42615 | DRSC05121 | 51 | 57.4 | – | – | active |
| CG40298 | DRSC22274 | 110 | 113 | – | – | inactive |
| l(2)37Cd | DRSC02069 | 48.1 | 165 | – | – | active |
| CG7322 | DRSC20036 | 62.8 | 116 | – | – | active |
| CG10979 | DRSC12153 | 128 | 191 | – | – | inactive |
| mei-9 | DRSC18792 | 300 | 140 | – | – | inactive |
| CG15254 | DRSC01870 | 133 | 136 | 136 | 124 | inactive |
| CG15254 | DRSC21765 | 130 | 137 | – | – | inactive |
| MICU3 | DRSC15613 | 140 | 267 | – | – | inactive |
| CG45263 | DRSC14357 | 119 | 140 | – | – | inactive |
| CG45263 | DRSC14360 | 134 | 140 | – | – | inactive |
| CG45263 | DRSC14361 | 117 | 96.5 | – | – | inactive |
| CG45263 | DRSC14363 | 108 | 107 | – | – | inactive |
| melt | DRSC11367 | 86.5 | 61.2 | – | – | inactive |
| Efhc1.1 | DRSC20135 | 133 | 125 | – | – | inactive |
| Fbxl7 | DRSC15553 | 196 | 205 | – | – | inactive |
| CRAT | DRSC12523 | 110 | 116 | – | – | inactive |
| KP78a + KP78b | DRSC16721 | 142 | 110 | – | – | inactive |
| KP78a + KP78b | DRSC16722 | 123 | 162 | – | – | inactive |
| CG9945 | DRSC07347 | 84.2 | 83.9 | – | – | inactive |
| Ada2a + Polr2D | DRSC16206 | 121 | 183 | – | – | inactive |
| Ada2a + Polr2D | DRSC21598 | 113 | 74.3 | – | – | inactive |
| CG17380 | DRSC15230 | 283 | 152 | – | – | inactive |
| CG7668 | DRSC10901 | 107 | 105 | – | – | inactive |
| Semp1 | DRSC01874 | 80.9 | 140 | – | – | active |
| Ipp | DRSC16718 | 94.7 | 139 | – | – | inactive |
| Max | DRSC11218 | 176 | 105 | – | – | inactive |
| CG12945 | DRSC14573 | 128 | 73.2 | – | – | inactive |
| CG14301 | DRSC14780 | 188 | 178 | – | – | inactive |
| CG13066 | DRSC09949 | 122 | 160 | – | – | inactive |
| Tom40 | DRSC18796 | 48.8 | 193 | – | – | active |
| GluProRS | DRSC14095 | 133 | 204 | – | – | inactive |
| rau | DRSC03125 | 122 | 158 | – | – | inactive |
| sp3 | DRSC16354 | 157 | 92.7 | – | – | inactive |
| yl | DRSC20387 | 82.3 | 120 | – | – | inactive |
| Ubc87F | DRSC16513 | 123 | 198 | – | – | inactive |
| mip40 | DRSC06541 | 124 | 104 | – | – | inactive |
| CG9098 | DRSC03136 | 144 | 221 | 71.3 | 123 | inactive |
| CG9098 | DRSC22501 | 102 | 157 | – | – | inactive |
| Abi | DRSC14099 | 98.8 | 146 | – | – | inactive |
| ast | DRSC00803 | 142 | 204 | – | – | inactive |
| Npc2c | DRSC15523 | 125 | 85.7 | – | – | inactive |
| CG33922 | DRSC00050 | 84.5 | 169 | – | – | active |
| CG4324 | DRSC04462 | 50.8 | 189 | – | – | active |
| Spred | DRSC05976 | 122 | 172 | – | – | inactive |
| CG5149 | DRSC02819 | 99.1 | 274 | – | – | inactive |
| sordd2 + sordd1 | DRSC20136 | 118 | 130 | – | – | inactive |
| PCNA2 | DRSC02030 | 63.2 | 231 | – | – | inactive |
| CG13561 | DRSC04199 | 141 | 247 | – | – | inactive |
| Jon99Fii | DRSC15430 | 145 | 140 | – | – | inactive |
| CG34196 | DRSC05704 | 104 | 110 | – | – | inactive |
| CG34396 | DRSC04245 | 61.3 | 180 | – | – | inactive |
| CG34396 | DRSC04246 | 48.3 | 193 | – | – | inactive |
| Tango8 | DRSC06474 | 168 | 182 | 109 | 103 | inactive |
| fs(1)Yb | DRSC18777 | 99.5 | 147 | – | – | inactive |
| CG8539 | DRSC10988 | 95.1 | 141 | – | – | inactive |
| CG8539 | DRSC21798 | 160 | 102 | – | – | inactive |
| CG13590 | DRSC04226 | 121 | 155 | 110 | 71 | inactive |
| Ras85D | DRSC16814 | 85 | 83.8 | – | – | inactive |
| CG13398 | DRSC02268 | 165 | 145 | – | – | inactive |
| CG13807 | DRSC08342 | 55.2 | 99.8 | – | – | inactive |
| CG5810 | DRSC15880 | 148 | 165 | – | – | inactive |
| CG5810 | DRSC21921 | 103 | 206 | – | – | inactive |
| Torsin | DRSC18570 | 130 | 90.7 | 213 | 196 | inactive |
| ssp5 | DRSC14955 | 160 | 154 | – | – | inactive |
| ana3 | DRSC06289 | 145 | 174 | – | – | inactive |
| Gmer | DRSC04376 | 161 | 79.6 | – | – | inactive |
| galla-1 | DRSC05987 | 71.9 | 101 | – | – | inactive |
| CG32281 | DRSC08236 | 100 | 148 | – | – | inactive |
| Rbp9 | DRSC00416 | 104 | 105 | – | – | inactive |
| Rbp9 | DRSC00779 | 102 | 271 | – | – | inactive |
| Tie | DRSC08702 | 73.1 | 55.6 | – | – | inactive |
| CG1105 | DRSC12528 | 112 | 134 | – | – | inactive |
| Alp7 | DRSC04355 | 51.3 | 176 | – | – | inactive |
| TrissinR | DRSC02334 | 230 | 149 | – | – | inactive |
| TrissinR | DRSC02335 | 194 | 94.7 | – | – | inactive |
| TrissinR | DRSC02336 | 125 | 138 | – | – | inactive |
| CG31937 | DRSC00514 | 133 | 220 | – | – | inactive |
| CG42272 | DRSC22502 | 70.7 | 207 | – | – | inactive |
| sei | DRSC04713 | 181 | 114 | – | – | inactive |
| CG17712 | DRSC00266 | 97.9 | 295 | – | – | inactive |
| bru3 | DRSC09280 | 9219 | 146 | – | – | inactive |
| bru3 | DRSC09292 | – | – | – | – | active |
| bru3 | DRSC09687 | 88.4 | 100 | – | – | inactive |
| bru3 | DRSC09887 | 108 | 82.6 | – | – | inactive |
| bru3 | DRSC22732 | 182 | 206 | – | – | inactive |
| Pbp45 | DRSC16509 | 118 | 149 | – | – | inactive |
| Pdcd4 | DRSC19360 | 107 | 95.3 | – | – | inactive |
| Culd | DRSC10262 | 98.2 | 134 | – | – | inactive |
| CG41520 | DRSC21102 | 129 | 115 | – | – | inactive |
| CG41520 | DRSC21103 | 222 | 117 | – | – | inactive |
| garz | DRSC07193 | 158 | 132 | – | – | inactive |
| Cyp313a4 | DRSC16627 | 200 | 100 | – | – | inactive |
| CG11357 | DRSC08183 | 111 | 73 | – | – | inactive |
| Rgk2 | DRSC06503 | 169 | 162 | – | – | inactive |
| Rgk2 | DRSC21651 | 170 | 93.9 | – | – | inactive |
